Experimental data as given in US20170360949A1 (TIANJIN INSTITUTE OF INDUSTRIAL BIOTECHNOLOGY CHINESE …, published 2017).
These are yes or no findings as the source states them, for the method shown. Binding seen in cells or lysates may run through a third protein. Some binding calls cover weakened binding; strength is not graded here.

Target: Z1Z2 (two Ig domains at the N terminus of the titin molecule) (human)
Assay: complex formation and co-purification as in Example 1

binding: binds
B1: GLTe-G (protein)
chain: HGEGTFTSDVSSYLEGQAAKEFIAWLVKGRGGGGGSGGGGSGGGGSAMATSELSSEVSEENSERREAFWAEWKDLTLSTRPEEGSSLHEEDTQRHETYHQQGQSQVLVQRSPWLMMRMGILGRGLQEYQLPYQRVLP
